Source: publication doi:10.1101/870899
Where two headings read alike, the source gives them in different places. No constants are given. Whether binding was seen depends on the method and setting. In cells and extracts the contact can be indirect. Some binding calls cover weakened binding; strength is not graded here. For some of these results: Tags and fused reporters may be left off the sequences shown.

The chains behind the UniProt entries cited, without tags or fusion partners. Residues count along the entry.
UniProt P17427, residues 701-938: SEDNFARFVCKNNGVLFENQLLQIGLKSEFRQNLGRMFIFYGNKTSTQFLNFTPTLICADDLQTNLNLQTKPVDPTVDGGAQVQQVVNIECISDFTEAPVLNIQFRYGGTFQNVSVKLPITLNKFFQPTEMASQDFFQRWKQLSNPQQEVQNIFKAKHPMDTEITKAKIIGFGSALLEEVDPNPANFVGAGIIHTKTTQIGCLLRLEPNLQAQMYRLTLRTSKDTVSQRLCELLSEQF
UniProt P62944, residues 701-937: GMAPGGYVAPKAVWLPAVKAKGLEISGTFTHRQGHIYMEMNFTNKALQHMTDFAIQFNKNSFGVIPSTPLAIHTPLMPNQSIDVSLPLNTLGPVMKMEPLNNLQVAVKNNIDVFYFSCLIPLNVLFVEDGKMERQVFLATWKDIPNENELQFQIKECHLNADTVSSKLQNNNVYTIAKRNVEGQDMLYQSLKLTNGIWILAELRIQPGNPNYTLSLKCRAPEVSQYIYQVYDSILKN

How the values were obtained:
Assay in all cases: pull-down
[1] = target: GST-mouse αC appendage (701-938) (mouse) (UniProt P17427)
[2] = target: GST-rat β2 appendage (701-937) (rat) (UniProt P62944)
[3] = target: GST-mouse αC appendage (701-938) (mouse) (UniProt P17427); remark: listed apart in the source

| binding [1] | binding [2] | binding [3] | Molecule |
| --- | --- | --- | --- |
| no binding |  |  | BMP2KΔCT-GFP (BMP2K 1-560) (from UniProt Q9NSY1 1-560) (domain or fragment) |
| binds | binds |  | BMP-2 inducible kinase (BMP2K), endogenous (from UniProt Q9NSY1 1-1161) (enzyme) |
|  |  | binds | BMP2KCT-GFP (BMP2K 561-1161) (domain or fragment, UniProt Q9NSY1 561-1161) SPEYLTSPQEFSPALVSYTSSLPAQVGTIMDSSYSANRSVADKEAIANFTNQKNISNPPDMSGWNPFGEDNFSKLTEEELLDREFDLLRSNRLEERASSDKNVDSLSAPHNHPPEDPFGSVPFISHSGSPEKKAEHSSINQENGTANPIKNGKTSPASKDQRTGKKTSVQGQVQKGNDESESDFESDPPSPKSSEEEEQDDEEVLQGEQGDFNDDDTEPENLGHRPLLMDSEDEEEEEKHSSDSDYEQAKAKYSDMSSVYRDRSGSGPTQDLNTILLTSAQLSSDVAVETPKQEFDVFGAVPFFAVRAQQPQQEKNEKNLPQHRFPAAGLEQEEFDVFTKAPFSKKVNVQECHAVGPEAHTIPGYPKSVDVFGSTPFQPFLTSTSKSESNEDLFGLVPFDEITGSQQQKVKQRSLQKLSSRQRRTKQDMSKSNGKRHHGTPTSTKKTLKPTYRTPERARRHKKVGRRDSQSSNEFLTISDSKENISVALTDGKDRGNVLQPEESLLDPFGAKPFHSPDLSWHPPHQGLSDIRADHNTVLPGRPRQNSLHGSFHSADVLKMDDFGAVPFTELVVQSITPHQSQQSQPVELDPFGAAPFPSKQ |
